According to PMC4518314:
These are yes or no findings as the source states them, for the method shown. In cells and extracts the contact can be indirect. Some entries that bind do so weakly or less than the wild type.

The chains behind the UniProt entries cited, without tags or fusion partners. Where a name states a change or a piece, a line headed by the entry shows the natural chain unless it says otherwise. A line that says so, or that is headed by a name, gives the form on record, which may keep a tag or linker.
UniProt Q7Z434: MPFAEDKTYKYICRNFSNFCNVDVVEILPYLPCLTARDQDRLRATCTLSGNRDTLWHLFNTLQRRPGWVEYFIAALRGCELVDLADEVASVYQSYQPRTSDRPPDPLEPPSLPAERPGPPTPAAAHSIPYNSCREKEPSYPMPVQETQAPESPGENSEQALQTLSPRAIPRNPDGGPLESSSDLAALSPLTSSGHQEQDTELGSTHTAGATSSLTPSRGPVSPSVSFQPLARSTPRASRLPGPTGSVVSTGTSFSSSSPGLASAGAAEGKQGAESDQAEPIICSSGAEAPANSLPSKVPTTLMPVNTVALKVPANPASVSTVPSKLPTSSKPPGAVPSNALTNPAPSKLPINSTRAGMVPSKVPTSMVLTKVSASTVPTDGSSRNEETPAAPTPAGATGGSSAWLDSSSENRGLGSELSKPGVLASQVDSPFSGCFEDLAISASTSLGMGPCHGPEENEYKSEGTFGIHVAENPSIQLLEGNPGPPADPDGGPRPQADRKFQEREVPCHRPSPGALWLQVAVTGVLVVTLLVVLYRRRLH
flag-MAVS-(Region I only) (Q7Z434, form named): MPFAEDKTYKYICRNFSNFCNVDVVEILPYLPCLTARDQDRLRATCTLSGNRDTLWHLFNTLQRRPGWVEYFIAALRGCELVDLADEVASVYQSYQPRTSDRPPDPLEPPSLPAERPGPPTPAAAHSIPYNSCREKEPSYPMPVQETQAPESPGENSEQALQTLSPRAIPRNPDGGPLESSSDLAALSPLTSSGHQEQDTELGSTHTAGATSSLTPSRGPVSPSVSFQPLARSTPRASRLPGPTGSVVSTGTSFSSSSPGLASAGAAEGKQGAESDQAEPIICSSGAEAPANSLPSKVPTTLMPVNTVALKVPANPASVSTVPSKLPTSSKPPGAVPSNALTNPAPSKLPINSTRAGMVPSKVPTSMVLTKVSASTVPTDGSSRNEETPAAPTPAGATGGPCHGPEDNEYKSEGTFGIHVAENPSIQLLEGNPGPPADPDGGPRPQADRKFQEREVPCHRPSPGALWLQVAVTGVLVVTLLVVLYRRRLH
flag-MAVS-(Region II only) (Q7Z434, form named): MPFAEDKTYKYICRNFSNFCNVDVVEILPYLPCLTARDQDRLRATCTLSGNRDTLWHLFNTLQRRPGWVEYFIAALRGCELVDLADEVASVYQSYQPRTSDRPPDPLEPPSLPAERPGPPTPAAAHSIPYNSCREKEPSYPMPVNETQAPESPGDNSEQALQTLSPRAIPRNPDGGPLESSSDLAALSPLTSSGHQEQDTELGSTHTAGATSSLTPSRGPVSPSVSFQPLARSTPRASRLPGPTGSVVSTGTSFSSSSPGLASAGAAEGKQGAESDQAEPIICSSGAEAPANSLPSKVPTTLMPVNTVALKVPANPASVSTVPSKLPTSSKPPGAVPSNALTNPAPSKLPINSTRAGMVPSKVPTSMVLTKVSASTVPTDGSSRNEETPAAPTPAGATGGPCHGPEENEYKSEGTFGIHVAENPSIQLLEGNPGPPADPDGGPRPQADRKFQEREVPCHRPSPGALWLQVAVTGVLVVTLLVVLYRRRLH
flag-MAVS-(Region III only) (Q7Z434, form named): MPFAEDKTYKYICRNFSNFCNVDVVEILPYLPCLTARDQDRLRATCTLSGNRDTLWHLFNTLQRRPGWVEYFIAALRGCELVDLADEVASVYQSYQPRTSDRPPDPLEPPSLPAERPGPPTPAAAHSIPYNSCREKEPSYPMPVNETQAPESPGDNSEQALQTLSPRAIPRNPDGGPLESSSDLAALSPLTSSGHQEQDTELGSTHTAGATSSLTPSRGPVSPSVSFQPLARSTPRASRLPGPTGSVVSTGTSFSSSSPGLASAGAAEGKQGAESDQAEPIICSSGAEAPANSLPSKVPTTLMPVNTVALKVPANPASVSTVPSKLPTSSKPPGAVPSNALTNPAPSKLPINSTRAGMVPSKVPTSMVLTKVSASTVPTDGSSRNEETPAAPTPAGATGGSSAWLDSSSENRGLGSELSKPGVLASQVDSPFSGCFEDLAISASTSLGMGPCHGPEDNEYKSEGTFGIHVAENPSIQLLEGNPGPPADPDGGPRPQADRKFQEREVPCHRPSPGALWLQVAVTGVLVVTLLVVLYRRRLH
UniProt O00463: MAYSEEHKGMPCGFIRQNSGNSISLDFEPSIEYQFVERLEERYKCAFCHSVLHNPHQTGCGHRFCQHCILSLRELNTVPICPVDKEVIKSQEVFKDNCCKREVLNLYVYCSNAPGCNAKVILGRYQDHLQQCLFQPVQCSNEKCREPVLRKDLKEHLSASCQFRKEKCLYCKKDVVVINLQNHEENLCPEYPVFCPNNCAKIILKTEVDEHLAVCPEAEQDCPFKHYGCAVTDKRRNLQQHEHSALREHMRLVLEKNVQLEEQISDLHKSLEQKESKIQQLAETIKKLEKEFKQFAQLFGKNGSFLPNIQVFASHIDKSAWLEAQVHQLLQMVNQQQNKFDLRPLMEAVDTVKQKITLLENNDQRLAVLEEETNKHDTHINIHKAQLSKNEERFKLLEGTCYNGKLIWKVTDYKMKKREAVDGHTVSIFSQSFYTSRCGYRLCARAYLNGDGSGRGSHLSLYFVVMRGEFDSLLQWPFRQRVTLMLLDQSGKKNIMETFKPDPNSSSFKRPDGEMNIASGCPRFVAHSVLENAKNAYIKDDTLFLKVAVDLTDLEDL

What was measured:
Experiment in all cases: co-IP
[1] = molecular target: flag-MAVS-(Region I only) (human) (UniProt Q7Z434)
[2] = molecular target: flag-MAVS-(Region II only) (human) (UniProt Q7Z434)
[3] = molecular target: flag-MAVS-(Region III only) (human) (UniProt Q7Z434)

Measured: binding

TRAF5 (endogenous) (from UniProt O00463 1-557)
binds: all assays above
